B1: BUB1 (protein, UniProt O43683 1-1085, looked up)
Mitotic checkpoint …: MDTPENVLQMLEAHMQSYKGNDPLGEWERYIQWVEENFPENKEYLITLLEHLMKEFLDKKKYHNDPRFISYCLKFAEYNSDLHQFFEFLYNHGIGTLSSPLYIAWAGHLEAQGELQHASAVLQRGIQNQAEPREFLQQQYRLFQTRLTETHLPAQARTSEPLHNVQVLNQMITSKSNPGNNMACISKNQGSELSGVISSACDKESNMERRVITISKSEYSVHSSLASKVDVEQVVMYCKEKLIRGESEFSFEELRAQKYNQRRKHEQWVNEDRHYMKRKEANAFEEQLLKQKMDELHKKLHQVVETSHEDLPASQERSEVNPARMGPSVGSQQELRAPCLPVTYQQTPVNMEKNPREAPPVVPPLANAISAALVSPATSQSIAPPVPLKAQTVTDSMFAVASKDAGCVNKSTHEFKPQSGAEIKEGCETHKVANTSSFHTTPNTSLGMVQATPSKVQPSPTVHTKEALGFIMNMFQAPTLPDISDDKDEWQSLDQNEDAFEAQFQKNVRSSGAWGVNKIISSLSSAFHVFEDGNKENYGLPQPKNKPTGARTFGERSVSRLPSKPKEEVPHAEEFLDDSTVWGIRCNKTLAPSPKSPGDFTSAAQLASTPFHKLPVESVHILEDKENVVAKQCTQATLDSCEENMVVPSRDGKFSPIQEKSPKQALSSHMYSASLLRLSQPAAGGVLTCEAELGVEACRLTDTDAAIAEDPPDAIAGLQAEWMQMSSLGTVDAPNFIVGNPWDDKLIFKLLSGLSKPVSSYPNTFEWQCKLPAIKPKTEFQLGSKLVYVHHLLGEGAFAQVYEATQGDLNDAKNKQKFVLKVQKPANPWEFYIGTQLMERLKPSMQHMFMKFYSAHLFQNGSVLVGELYSYGTLLNAINLYKNTPEKVMPQGLVISFAMRMLYMIEQVHDCEIIHGDIKPDNFILGNGFLEQDDEDDLSAGLALIDLGQSIDMKLFPKGTIFTAKCETSGFQCVEMLSNKPWNYQIDYFGVAATVYCMLFGTYMKVKNEGGECKPEGLFRRLPHLDMWNEFFHVMLNIPDCHHLPSLDLLRQKLKKVFQQHYTNKIRALRNRLIVLLLECKRSRK
B2: BCR (protein, UniProt P11274 1-1271, looked up)
Breakpoint cluster region …: MVDPVGFAEAWKAQFPDSEPPRMELRSVGDIEQELERCKASIRRLEQEVNQERFRMIYLQTLLAKEKKSYDRQRWGFRRAAQAPDGASEPRASASRPQPAPADGADPPPAEEPEARPDGEGSPGKARPGTARRPGAAASGERDDRGPPASVAALRSNFERIRKGHGQPGADAEKPFYVNVEFHHERGLVKVNDKEVSDRISSLGSQAMQMERKKSQHGAGSSVGDASRPPYRGRSSESSCGVDGDYEDAELNPRFLKDNLIDANGGSRPPWPPLEYQPYQSIYVGGMMEGEGKGPLLRSQSTSEQEKRLTWPRRSYSPRSFEDCGGGYTPDCSSNENLTSSEEDFSSGQSSRVSPSPTTYRMFRDKSRSPSQNSQQSFDSSSPPTPQCHKRHRHCPVVVSEATIVGVRKTGQIWPNDGEGAFHGDADGSFGTPPGYGCAADRAEEQRRHQDGLPYIDDSPSSSPHLSSKGRGSRDALVSGALESTKASELDLEKGLEMRKWVLSGILASEETYLSHLEALLLPMKPLKAAATTSQPVLTSQQIETIFFKVPELYEIHKEFYDGLFPRVQQWSHQQRVGDLFQKLASQLGVYRAFVDNYGVAMEMAEKCCQANAQFAEISENLRARSNKDAKDPTTKNSLETLLYKPVDRVTRSTLVLHDLLKHTPASHPDHPLLQDALRISQNFLSSINEEITPRRQSMTVKKGEHRQLLKDSFMVELVEGARKLRHVFLFTDLLLCTKLKKQSGGKTQQYDCKWYIPLTDLSFQMVDELEAVPNIPLVPDEELDALKIKISQIKNDIQREKRANKGSKATERLKKKLSEQESLLLLMSPSMAFRVHSRNGKSYTFLISSDYERAEWRENIREQQKKCFRSFSLTSVELQMLTNSCVKLQTVHSIPLTINKEDDESPGLYGFLNVIVHSATGFKQSSNLYCTLEVDSFGYFVNKAKTRVYRDTAEPNWNEEFEIELEGSQTLRILCYEKCYNKTKIPKEDGESTDRLMGKGQVQLDPQALQDRDWQRTVIAMNGIEVKLSVKFNSREFSLKRMPSRKQTGVFGVKIAVVTKRERSKVPYIVRQCVEEIERRGMEEVGIYRVSGVATDIQALKAAFDVNNKDVSVMMSEMDVNAIAGTLKLYFRELPEPLFTDEFYPNFAEGIALSDPVAKESCMLNLLLSLPEANLLTFLFLLDHLKRVAEKEAVNKMSLHNLATVFGPTLLRPSEKESKLPANPSQPITMTDSWSLEVMSQVQVLLYFLQLEAIPAPDSKRQSILFSTEV
B3: NEK9 (protein, UniProt Q8TD19 2-979, looked up)
Serine/threonine-protein …: SVLGEYERHCDSINSDFGSESGGCGDSSPGPSASQGPRAGGGAAEQEELHYIPIRVLGRGAFGEATLYRRTEDDSLVVWKEVDLTRLSEKERRDALNEIVILALLQHDNIIAYYNHFMDNTTLLIELEYCNGGNLYDKILRQKDKLFEEEMVVWYLFQIVSAVSCIHKAGILHRDIKTLNIFLTKANLIKLGDYGLAKKLNSEYSMAETLVGTPYYMSPELCQGVKYNFKSDIWAVGCVIFELLTLKRTFDATNPLNLCVKIVQGIRAMEVDSSQYSLELIQMVHSCLDQDPEQRPTADELLDRPLLRKRRREMEEKVTLLNAPTKRPRSSTVTEAPIAVVTSRTSEVYVWGGGKSTPQKLDVIKSGCSARQVCAGNTHFAVVTVEKELYTWVNMQGGTKLHGQLGHGDKASYRQPKHVEKLQGKAIRQVSCGDDFTVCVTDEGQLYAFGSDYYGCMGVDKVAGPEVLEPMQLNFFLSNPVEQVSCGDNHVVVLTRNKEVYSWGCGEYGRLGLDSEEDYYTPQKVDVPKALIIVAVQCGCDGTFLLTQSGKVLACGLNEFNKLGLNQCMSGIINHEAYHEVPYTTSFTLAKQLSFYKIRTIAPGKTHTAAIDERGRLLTFGCNKCGQLGVGNYKKRLGINLLGGPLGGKQVIRVSCGDEFTIAATDDNHIFAWGNGGNGRLAMTPTERPHGSDICTSWPRPIFGSLHHVPDLSCRGWHTILIVEKVLNSKTIRSNSSGLSIGTVFQSSSPGGGGGGGGGEEEDSQQESETPDPSGGFRGTMEADRGMEGLISPTEAMGNSNGASSSCPGWLRKELENAEFIPMPDSPSPLSAAFSESEKDTLPYEELQGLKVASEAPLEHKPQVEASSPRLNPAVTCAGKGTPLTPPACACSSLQVEVERLQGLVLKCLAEQQKLQQENLQIFTQLQKLNKKLEGGQQVGMHSKGTQTAKEEMEMDPKPDLDSDSWCLLGTDSCRPSL
B4: CDC45 (protein, UniProt O75419 1-566, looked up)
Cell division control protein …: MFVSDFRKEFYEVVQSQRVLLFVASDVDALCACKILQALFQCDHVQYTLVPVSGWQELETAFLEHKEQFHYFILINCGANVDLLDILQPDEDTIFFVCDTHRPVNVVNVYNDTQIKLLIKQDDDLEVPAYEDIFRDEEEDEEHSGNDSDGSEPSEKRTRLEEEIVEQTMRRRQRREWEARRRDILFDYEQYEYHGTSSAMVMFELAWMLSKDLNDMLWWAIVGLTDQWVQDKITQMKYVTDVGVLQRHVSRHNHRNEDEENTLSVDCTRISFEYDLRLVLYQHWSLHDSLCNTSYTAARFKLWSVHGQKRLQEFLADMGLPLKQVKQKFQAMDISLKENLREMIEESANKFGMKDMRVQTFSIHFGFKHKFLASDVVFATMSLMESPEKDGSGTDHFIQALDSLSRSNLDKLYHGLELAKKQLRATQQTIASCLCTNLVISQGPFLYCSLMEGTPDVMLFSRPASLSLLSKHLLKSFVCSTKNRRCKLLPLVMAAPLSMEHGTVTVVGIPPETDSSDRKNFFGRAFEKAAESTSSRMLHNHFDLSVIELKAEDRSKFLDALISLLS
B5: CRKL (protein)
chain: MSSARFDSSDRSAWYMGPVSRQEAQTRLQGQRHGMFLVRDSSTCPGDYVLSVSENSRVSHYIINSLPNRRFKIGDQEFDHLPALLEFYKIHYLDTTTLIEPAPRYPSPPMGSVSAPNLPTAEDNLEYVRTLYDFPGNDAEDLPFKKGEILVIIEKPEEQWWSARNKDGRVGMIPVPYVEKLVRSSPHGKHGNRNSNSYGIPEPAHAYAQPQTTTPLPAVSGSPGAAITPLPSTQNGPVFAKAIQKRVPCAYDKTALALEVGDIVKVTRMNINGQWEGEVNGRKGLFPFTHVKIFDPQNPDENE
B6: EPS15 (protein)
chain: AAAAQLSLTQLSSGNPVYEKYYRQVDTGNTGRVLASDAAAFLKKSGLPDLILGKIWDLADTDGKGILNKQEFFVALRLVACAQNGLEVSLSSLNLAVPPPRFHDTSSPLLISGTSAAELPWAVKPEDKAKYDAIFDSLSPVNGFLSGDKVKPVLLNSKLPVDILGRVWELSDIDHDGMLDRDEFAVAMFLVYCALEKEPVPMSLPPALVPPSKRKTWVVSPAEKAKYDEIFLKTDKDMDGFVSGLEVREIFLKTGLPSTLLAHIWSLCDTKDCGKLSKDQFALAFHLISQKLIKGIDPPHVLTPEMIPPSDRASLQKNIIGSSPVADFSAIKELDTLNNEIVDLQREKNNVEQDLKEKEDTIKQRTSEVQDLQDEVQRENTNLQKLQAQKQQVQELLDELDEQKAQLEEQLKEVRKKCAEEAQLISSLKAELTSQESQISTYEEELAKAREELSRLQQETAELEESVESGKAQLEPLQQHLQDSQQEISSMQMKLMEMKDLENHNSQLNWCSSPHSILVNGATDYCSLSTSSSETANLNEHVEGQSNLESEPIHQESPARSSPELLPSGVTDENEVTTAVTEKVCSELDNNRHSKEEDPFNVDSSSLTGPVADTNLDFFQSDPFVGSDPFKDDPFGKIDPFGGDPFKGSDPFASDCFFRQSTDPFATSSTDPFSAANNSSITSVETLKHNDPFAPGGTVVAASDSATDPFASVFGNESFGGGFADFSTLSKVNNEDPFRSATSSSVSNVVITKNVFEETSVKSEDEPPALPPKIGTPTRPCPLPPGKRSINKLDSPDPFKLNDPFQPFPGNDSPKEKDPEIFCDPFTSATTTTNKEADPSNFANFSAYPSEEDMIEWAKRESEREEEQRLARLNQQEQEDLELAIALSKSEISEA

How the values were obtained:
[1] = tested on: Hsp90 complexes in Mia-PaCa-2 cell extract; experiment: Nano-LC-MS/MS of PU-beads pull-downs; type: binding, human; conditions: protein identified in PU-beads pull-down of Mia-Paca 2 extract; QSTAR-Elite QTof MS
In short: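 Lysates pre-cleared overnight at 4 °C with control beads underwent PU-bead pull-down; bound proteins were SDS-eluted, gel-separated, digested and analyzed by nano-LC-MS/MS on a QTof. Identifications used significance p<0.05, 0.4 Da tolerances and one missed cleavage; unique peptide (spectral) counts and sequence coverage were reported.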

[2] = tested on: Hsp90 complexes in K562 cell extract; experiment: Nano-LC-MS/MS of PU-beads pull-downs; type: binding; conditions: protein identified in PU-beads pull-down of K562 extract, QSTAR-Elite QTof MS
In short: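 Lysates pre-cleared overnight at 4 °C with control beads, then pulled down with PU-beads or control beads; eluted proteins (2% SDS boil) gel-separated and analysed by nano LC-MS/MS on a QTof. Mascot identification (p<0.05), spectral counts and sequence coverage evaluated in Scaffold.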

| Molecule | Number of Assigned Spectra, Mia-Paca 2 [1] | Number of Assigned Spectra, K562 Prep 1 [2] | Number of Assigned Spectra, K562 Prep 2 [2] |
| --- | --- | --- | --- |
| B1 | 0 | 1 | 0 |
| B2 | 0 | 1 | 4 |
| B3 | 5 | 3 | 3 |
| B4 | 0 | 7 | 7 |
| B5 | 0 | 5 | 0 |
| B6 | 3 | 23 | 26 |

Source: patent US20220074941A1, “HSP90 COMBINATION THERAPY” (Sloan-Kettering Institute for Cancer Research, priority 2011, published 2022)
